The record followed here is US20160083479A1 (AGENCY FOR SCIENCE TECHNOLOGY AND RESEARCH, published 2016).

Assay [1] addresses T1, peptide P8.
T1 sequence (peptide, biotin at the N-terminus, linked by the SGSG linker): SGSGCIFSPQIAEPSQCPD
Briefly: alanine scan peptide ELISA, 1 mM DTT, A450.

Assay [2] concerns the target T2, peptide P1.
T2 sequence (peptide, biotin at the N-terminus, linked by the SGSG linker): SGSGAIFSPQIEEPSQCPD
The assay can be described thus: alanine scan peptide ELISA, 1 mM DTT, A450. Background: An ELISA detects its analyte on a solid surface through an enzyme-linked reagent.

These are yes or no findings as the source states them, for the method shown. No end group written: not given here. *: point of attachment. Biotin = O=C1N[C@H]2[C@H](CS[C@H]2CCCCC(=O)*)N1

B1: mAb 2 (antibody, IgG1, V domains shown)
VH: QVQLKESGGGLVQPGGSLTLSCATSGFTFTDHYMSWVRQPPGKALEWLAFIRNKAKGYTTEYNASVRGRFTISRDNSQNIVYLQMNTLRTEDSATYYCARDGVGIAYWGQGTLVTVSA
VL: SIVMTQSPLSLPVSLGDQASISCRSSQSLENINGNTYLNWYFQKPGQSPQLLIYRVSNRVSGVLDRFSGSGSGTDFTLKITRVEAEDLGVYFCLQVTHVPWTFGGGTKLEIK
notes: Murine monoclonal antibody purified from ascites (or hybridoma supernatant in the first Pepscan); constant regions are not; also called full length murine mAb 2
On to B1, for which the binding result in assay [1] and in assay [2] was “no binding (tested: 0.05 µg/mL mAb 2)” in each case.
